# Measurements taken from PubChem BioAssay AID2685 (National Center for Advancing Translational Sciences (NCATS), 2010).
# Some of the results follow. These are further read-outs of the screen, such as a control signal, another cell line or another target. No call is given for them. The list favours compounds with an active or inconclusive main result. Potencies come from curve fits of mixed quality, noted in brackets.
# Experiment: qHTS Assay for Lipid Storage Modulators in Drosophila S3 Cells;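 for cell number change: cells counted by Cell Tracker Red CMTPX staining in the red channel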
# Conditions: BODIPY lipid droplet fluorescence, 18-24 h; for cell number change: measured here: cell count max response, cells fed with added oleic acid
# Summary of the method: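 Drosophila S3 cells loaded with oleic acid (400 uM, as added) and compounds at several concentrations; lipid droplets imaged by 488-nm laser-scanning cytometry, 500–530 nm intensity and object ratio to cell channel. Percent activity normalized to 20 uM Triacsin C.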
# [1] = measured here: cell number channel AC50, cells fed with added oleic acid
# [2] = measured here: lipid fluorescence (Fed channel) AC50, cells fed with added oleic acid
SMILES,cell number change,AC50 [1],AC50 [2]
COc1ccc(OC)c(C2SCCN2S(C)(=O)=O)c1 (stereo unspecified),30.2%,"20.6 µM [rising, single point]",–
Cc1cccnc1NC(=O)c1ccccc1-c1ccccc1C(=O)Nc1ncccc1C,-11.8%,"0.0731 µM [falling, full curve, poor fit]","6.51 µM [falling, single point]"
CC(C)CCN1CCN(Cc2ccoc2)CC1CCO (stereo unspecified),9.68%,–,"23.1 µM [rising, single point]"
COc1ccc(C(=O)Nc2cc(C)ccc2NC(=O)COc2ccccc2)cc1,65.9%,"16.4 µM [rising, single point]","14.6 µM [rising, partial curve]"
COc1ccc(Cl)cc1NC(=O)CN(c1ccccc1)S(=O)(=O)N(C)C,16.9%,"0.461 µM [rising, full curve, poor fit]",–
Cc1ccc(CSC2=Nc3ccccc3C3=NC(CC(=O)NCc4ccco4)C(=O)N23)cc1 (stereo unspecified),-6.54%,–,"18.4 µM [falling, single point]"
CCSc1ncc(/C=N/Nc2ccc(Cl)cc2)n1C,-37%,"0.0184 µM [falling, partial curve, poor fit]",–
Cc1ccc(S(=O)(=O)NC(=O)Nc2ccc(F)c(F)c2)cc1,2.94%,–,–
Cc1cccc(/C=N\Nc2cn[nH]c(=O)c2Cl)c1,-38.2%,"14.6 µM [falling, partial curve, poor fit]",–
CN1CCN(CC(O)COc2ccc(S(=O)(=O)N3CCOCC3)cc2)CC1 (stereo unspecified),3.51%,"0.326 µM [falling, full curve, poor fit]",–
Cc1ccnc(SCCn2c(N3CCCCC3)nc3c2c(=O)[nH]c(=O)n3C)n1,-8%,"0.731 µM [falling, single point]","0.13 µM [rising, full curve, poor fit]"
COc1ccc(C(=O)NCC(=O)OCC(=O)Nc2c(C)n(C)n(-c3ccccc3)c2=O)cc1,-37.6%,"0.184 µM [falling, full curve]","23.1 µM [falling, partial curve]"
CC1CCCCN1S(=O)(=O)c1ccc2c(c1)CCN2C(=O)C1CC1 (stereo unspecified),–,–,"18.4 µM [falling, partial curve]"
CCOc1cc(C(=O)OCC(=O)Nc2ccc(SC(F)F)cc2)cc(OCC)c1OCC,46.6%,"10.3 µM [rising, partial curve, poor fit]","29.1 µM [rising, single point]"
COc1cccc(/C=N/NC(=O)CSc2nnc(C)n2-c2ccccc2)c1O,31.1%,"32.6 µM [rising, single point]",–
COc1ccc(C(=O)NCCCNC(=O)c2cc3ccccc3[nH]2)cc1OC,24.6%,–,"4.61 µM [rising, full curve]"
NC(=O)C1CCN(C(=O)COc2ccc(S(=O)(=O)NCc3ccccc3)cc2Cl)CC1,8.19%,–,"0.517 µM [rising, single point]"
Cc1ccccc1N=C(NO)c1cccnc1,4.26%,"0.366 µM [rising, full curve]",–
CC(CCc1ccccc1)NC(=O)CN(C)Cc1ccc(F)cc1 (stereo unspecified),34.2%,"5.17 µM [rising, full curve, poor fit]",–
Cn1nnnc1SCC(=O)N1c2ccccc2Sc2ccccc21,3.66%,–,"0.103 µM [falling, full curve, poor fit]"

# Whole records, quoted from the list:
# COc1ccc(OC)c(C2SCCN2S(C)(=O)=O)c1 (stereo unspecified) is entered as cell number change: 30.2%; AC50 [1]: 20.6 µM [rising, single point]
# NC(=O)C1CCN(C(=O)COc2ccc(S(=O)(=O)NCc3ccccc3)cc2Cl)CC1 is entered as cell number change: 8.19%; AC50 [2]: 0.517 µM [rising, single point]
# CC(C)CCN1CCN(Cc2ccoc2)CC1CCO (stereo unspecified) is entered as cell number change: 9.68%; AC50 [2]: 23.1 µM [rising, single point]
# Cc1ccc(CSC2=Nc3ccccc3C3=NC(CC(=O)NCc4ccco4)C(=O)N23)cc1 (stereo unspecified) is entered as cell number change: -6.54%; AC50 [2]: 18.4 µM [falling, single point]

# (next part)

SMILES,cell number change,AC50 [1],AC50 [2]
Cc1ccc(-c2csc(=Nc3cccnc3)n2CCCN2CCCC2=O)cc1C,12.6%,"4.61 µM [rising, partial curve, poor fit]",–
Cc1cccc(N2CC(C(=O)NCc3ccco3)CC2=O)c1C (stereo unspecified),50%,"23.1 µM [rising, single point]","11.6 µM [rising, partial curve]"
O=C(Nc1ccccc1N1CCN(C(=O)c2ccc(Cl)cc2)CC1)c1ccc(Br)cc1,–,–,"2.06 µM [rising, partial curve]"
Cc1nc2ccccc2c(=O)n1CC(=O)N1CCOCC1,-87.5%,"29.1 µM [falling, single point]","29.1 µM [falling, single point]"
O=C(Nc1ccc(Br)cc1F)c1cccnc1,14%,–,"29.1 µM [rising, single point]"
CC1(C(=O)Nc2c(F)c(F)c(F)c(F)c2F)CC1(Br)Br (stereo unspecified),-2.99%,"0.259 µM [rising, full curve, poor fit]",–
CCN(CC(=O)Nc1ccccc1C(F)(F)F)C(=O)Cc1cccs1,6.65%,"6.51 µM [rising, single point]","6.51 µM [rising, single point]"
O=C(O)c1ccc(NC(CSCc2ccc(F)cc2)C(=O)O)c([N+](=O)[O-])c1 (stereo unspecified),-31.1%,"58 µM [falling, partial curve, poor fit]","23.1 µM [falling, partial curve]"
CCOC(=O)NC(NCc1ccccc1Cl)(C(F)(F)F)C(F)(F)F,32.4%,"29.1 µM [rising, single point]",–
Clc1ccc(-c2nnc(-c3ccccc3)c(-c3c[nH]c4ccccc34)n2)cc1,6.14%,–,"0.82 µM [rising, full curve, poor fit]"
CC(C)C(=O)N(c1ccc2oc(=O)sc2c1)S(=O)(=O)c1ccccc1,2.63%,–,–
Cc1ccc2cc(C(c3nnnn3C(C)(C)C)N3CCCC3)c(=O)[nH]c2c1C (stereo unspecified),111%,"1.64 µM [rising, full curve]","4.61 µM [rising, single point]"
CC(=O)c1cc2c(cc1NC(=O)c1ccc(C)cc1)OCCO2,-1.4%,–,–
COc1ccc(C(=O)N/C(=C\c2ccc3c(c2)OCO3)C(=O)Nc2ccc(C(=O)O)cc2)cc1,-44.5%,"4.61 µM [falling, full curve, poor fit]",–
COCCOc1cc(-n2ccnc2SC)c(Cl)cc1Cl,-22.1%,–,"20.6 µM [falling, partial curve, poor fit]"
O=C(NCCN1C(=O)S/C(=C\c2ccccc2Cl)C1=O)C1=COCCO1,–,"5.17 µM [falling, partial curve]","16.4 µM [falling, partial curve]"
O=C(Nc1ccccc1)C1CC=CCC1C(=O)OCC1CCCO1 (stereo unspecified),25.1%,–,"0.13 µM [falling, full curve]"
COCCNC(=O)[C@@]1(C)C=C[C@@H](Cc2ccccc2)N1C(=O)c1ccccc1,18.8%,–,"29.1 µM [falling, single point]"
COc1cc2c(cc1NC(=S)Nc1ccccc1C)oc1ccccc12,7.08%,"0.116 µM [rising, full curve, poor fit]","0.731 µM [rising, partial curve]"
CS(=O)(=O)c1cccc(-c2nnc(NC(=O)CCS(=O)(=O)c3ccccc3)o2)c1,7.15%,–,"5.8 µM [falling, full curve, poor fit]"

SMILES,cell number change,AC50 [1],AC50 [2]
COc1ccc(OC(C)C(=O)NCCC2=CCCCC2)cc1 (stereo unspecified),-10.2%,–,"14.6 µM [falling, partial curve]"
Cc1ccc(S(=O)(=O)Nc2ccc3nc(-c4cccn4C)[nH]c3c2)cc1,–,"0.231 µM [rising, full curve]","0.291 µM [rising, full curve]"
O=C(CSc1ccc2nnc(-c3ccccn3)n2n1)N1CCN(c2ccccc2)CC1,2.03%,–,–
COc1cccc(C2c3c(oc4cc(C)c(C)cc4c3=O)C(=O)N2CCCN(C)C)c1 (stereo unspecified),16.1%,–,–
CC1CCN(S(=O)(=O)c2ccc3c(c2)N(CC(=O)NCCCN2CC(C)CC(C)C2)C(=O)CS3)CC1 (stereo unspecified),–,–,"29.1 µM [rising, single point]"
COc1ccc(CN2C(=O)c3ccccc3C2=O)cc1C(=O)N(C)CC(=O)Nc1c(C)cccc1C,-2.72%,–,"5.8 µM [falling, full curve, poor fit]"
COc1cccc(-c2nc(CCl)cs2)c1OC,-38.1%,"0.00517 µM [falling, full curve, poor fit]","0.0651 µM [falling, full curve]"
O=[N+]([O-])c1cccc(/C([O-])=C(/C(=S)Nc2ccccc2)[n+]2ccccc2)c1,-1.24%,–,–
C/C=C(\C)CN1CCC(Oc2cc(C(=O)NC3CC3)ccc2OC)CC1,8.67%,–,–
CCc1ccc(CN2CCC(n3nccc3NC(=O)Cc3ccccc3)CC2)o1,9.54%,–,"2.91 µM [rising, full curve]"
CC(C(=O)Nc1ccccc1)N(C)Cc1cccs1 (stereo unspecified),-13.2%,–,–
Cc1nccn1CCCNC(=O)CC1C(=O)NCCN1Cc1ccc(Cl)c(F)c1 (stereo unspecified),-11.2%,–,"0.82 µM [falling, single point]"
O=C(Nc1ccc(O)c(C(=O)O)c1)c1ccc2c(c1)C(=O)N(CC1CCCO1)C2=O (stereo unspecified),-2.07%,–,–
COc1ccc(S(=O)(=O)Cc2ccc(C(=O)N3CCN(c4cc(C)ccc4C)CC3)o2)cc1,8.4%,"3.26 µM [falling, single point]",–
COc1ccc(/C=C(/NC(C)=O)C(=O)O)cc1,43.4%,"1.16 µM [rising, full curve, poor fit]","20.6 µM [rising, partial curve]"
O=C(CSc1nnc(-c2ccncc2)n1C1CCCCC1)Nc1cccc(O)c1,0.404%,–,"29.1 µM [rising, single point]"
COc1ccc(N/C=C\C(=O)c2ccc(C)cc2)cc1OC,12.2%,–,–
Cc1nn(Cc2ccccc2Cl)c2sc(C(=O)NCc3ccc4c(c3)OCO4)cc12,–,"1.03 µM [rising, partial curve]","0.461 µM [rising, partial curve, poor fit]"
